Laboratory results from PMC6107167.

Biological target: T1, NHLRC2 NHL repeat β-propeller domain (aa 221-572) (human) (UniProt Q8NBF2)
T1 sequence: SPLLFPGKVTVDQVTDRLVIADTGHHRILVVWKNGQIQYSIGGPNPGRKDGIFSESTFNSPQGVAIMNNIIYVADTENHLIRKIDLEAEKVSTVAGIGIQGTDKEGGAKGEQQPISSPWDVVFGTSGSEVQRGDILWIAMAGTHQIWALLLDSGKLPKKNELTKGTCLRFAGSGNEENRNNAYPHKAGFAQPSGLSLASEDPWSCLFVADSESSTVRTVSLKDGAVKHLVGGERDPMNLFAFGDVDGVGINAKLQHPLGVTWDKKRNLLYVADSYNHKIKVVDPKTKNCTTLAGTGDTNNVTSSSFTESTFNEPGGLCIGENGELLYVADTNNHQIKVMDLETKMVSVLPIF
Test: SEC-MALS; purified Trx-like domain with linker and β-propeller domain mixed in equimolar ratio, incubated 3 hours at room temperature; Superdex 200 Increase 10/300; 20 mM BisTris pH 6.5, 150 mM NaCl, 2 mM DTT; both purified

binding: no binding
Substance: NHLRC2 Trx-like domain with a linker region (human) (domain or fragment)

Results are given in words; binding and its absence hold for the method and conditions named.
